These are yes or no findings as the source states them, for the method shown. In cells and extracts the contact can be indirect. Some entries that bind do so weakly or less than the wild type. For some of these results: Tags and fused reporters may be left off the sequences shown.
What was measured:
[1] = target: Gfi1 (mouse (endogenous in cochlea)) (UniProt P70338); test: co-IP; nuclear extracts of mouse embryonic cochleae (E14.5, E15.5 or E17.5), endogenous proteins; IP buffer 20 mM Tris-HCl pH 8.0, 150 mM NaCl, 0.1% NP-40, 10% glycerol; ~1 ug primary antibody overnight at 4°C, protein A/G beads; western blot
[2] = target: T1, Rfx1 (mouse (endogenous in cochlea)) (UniProt P48377); test: as above
T1 sequence: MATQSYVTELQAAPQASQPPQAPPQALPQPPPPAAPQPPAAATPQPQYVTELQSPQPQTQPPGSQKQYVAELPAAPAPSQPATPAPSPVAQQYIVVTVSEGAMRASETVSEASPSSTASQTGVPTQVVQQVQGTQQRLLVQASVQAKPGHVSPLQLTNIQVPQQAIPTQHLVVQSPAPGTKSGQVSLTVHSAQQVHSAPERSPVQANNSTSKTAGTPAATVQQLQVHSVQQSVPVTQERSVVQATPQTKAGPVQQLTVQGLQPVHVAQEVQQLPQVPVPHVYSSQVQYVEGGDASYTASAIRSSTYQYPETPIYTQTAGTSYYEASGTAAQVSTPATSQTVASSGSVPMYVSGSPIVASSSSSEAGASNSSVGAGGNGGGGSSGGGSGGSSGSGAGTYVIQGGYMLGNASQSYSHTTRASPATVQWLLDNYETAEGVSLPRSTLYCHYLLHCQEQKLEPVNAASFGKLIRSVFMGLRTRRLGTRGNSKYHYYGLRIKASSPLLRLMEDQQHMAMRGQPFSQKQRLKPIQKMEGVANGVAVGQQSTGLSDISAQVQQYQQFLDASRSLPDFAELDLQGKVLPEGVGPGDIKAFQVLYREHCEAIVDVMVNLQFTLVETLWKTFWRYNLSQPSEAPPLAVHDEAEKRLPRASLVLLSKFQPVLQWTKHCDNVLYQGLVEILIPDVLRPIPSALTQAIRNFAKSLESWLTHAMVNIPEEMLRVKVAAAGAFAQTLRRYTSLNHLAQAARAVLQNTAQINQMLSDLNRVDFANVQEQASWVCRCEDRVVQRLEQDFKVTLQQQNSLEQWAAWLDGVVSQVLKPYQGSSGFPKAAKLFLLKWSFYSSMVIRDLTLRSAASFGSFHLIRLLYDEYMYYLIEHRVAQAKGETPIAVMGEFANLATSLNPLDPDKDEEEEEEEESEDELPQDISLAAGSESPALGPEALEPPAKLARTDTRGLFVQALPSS

By UniProt entry, the sequences of proteins in these tests, tags left out.
UniProt P70338: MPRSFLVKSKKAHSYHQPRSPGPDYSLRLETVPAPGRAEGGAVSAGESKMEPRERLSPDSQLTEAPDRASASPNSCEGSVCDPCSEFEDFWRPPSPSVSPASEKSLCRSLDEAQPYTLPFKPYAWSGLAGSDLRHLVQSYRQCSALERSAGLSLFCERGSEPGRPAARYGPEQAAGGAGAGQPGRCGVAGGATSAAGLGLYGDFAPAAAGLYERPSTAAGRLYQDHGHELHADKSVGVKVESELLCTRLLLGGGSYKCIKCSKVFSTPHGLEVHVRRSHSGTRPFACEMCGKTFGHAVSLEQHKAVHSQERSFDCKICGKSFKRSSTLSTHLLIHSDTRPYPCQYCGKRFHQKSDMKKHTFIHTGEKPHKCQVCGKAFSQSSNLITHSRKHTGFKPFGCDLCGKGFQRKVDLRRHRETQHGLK
UniProt P23772: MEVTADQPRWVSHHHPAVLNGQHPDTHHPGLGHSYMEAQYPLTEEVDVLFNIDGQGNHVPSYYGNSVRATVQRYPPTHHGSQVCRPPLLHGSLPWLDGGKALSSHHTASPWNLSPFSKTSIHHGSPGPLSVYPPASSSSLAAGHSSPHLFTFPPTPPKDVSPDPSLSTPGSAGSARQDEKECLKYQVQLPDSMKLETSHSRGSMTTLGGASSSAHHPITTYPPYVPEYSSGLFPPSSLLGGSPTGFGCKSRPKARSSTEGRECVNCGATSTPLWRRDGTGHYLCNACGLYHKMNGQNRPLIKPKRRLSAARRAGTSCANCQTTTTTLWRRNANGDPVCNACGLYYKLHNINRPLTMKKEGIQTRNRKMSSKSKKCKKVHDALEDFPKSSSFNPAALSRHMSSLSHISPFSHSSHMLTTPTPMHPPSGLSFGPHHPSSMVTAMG

[3] = target: T2, Pou4f3 (mouse (endogenous in cochlea)) (UniProt Q63955); test: as above
T2 sequence: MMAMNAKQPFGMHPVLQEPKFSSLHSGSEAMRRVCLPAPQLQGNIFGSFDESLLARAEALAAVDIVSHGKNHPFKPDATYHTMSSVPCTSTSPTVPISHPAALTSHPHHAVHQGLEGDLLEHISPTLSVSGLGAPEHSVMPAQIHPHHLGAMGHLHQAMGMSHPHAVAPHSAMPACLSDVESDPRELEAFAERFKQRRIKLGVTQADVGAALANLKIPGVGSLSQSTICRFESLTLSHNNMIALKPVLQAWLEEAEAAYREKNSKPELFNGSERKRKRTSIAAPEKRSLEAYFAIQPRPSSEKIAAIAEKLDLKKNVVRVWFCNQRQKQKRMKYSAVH

[4] = target: T3, Rfx3 (mouse (endogenous in cochlea)) (UniProt P48381); test: as above
T3 sequence: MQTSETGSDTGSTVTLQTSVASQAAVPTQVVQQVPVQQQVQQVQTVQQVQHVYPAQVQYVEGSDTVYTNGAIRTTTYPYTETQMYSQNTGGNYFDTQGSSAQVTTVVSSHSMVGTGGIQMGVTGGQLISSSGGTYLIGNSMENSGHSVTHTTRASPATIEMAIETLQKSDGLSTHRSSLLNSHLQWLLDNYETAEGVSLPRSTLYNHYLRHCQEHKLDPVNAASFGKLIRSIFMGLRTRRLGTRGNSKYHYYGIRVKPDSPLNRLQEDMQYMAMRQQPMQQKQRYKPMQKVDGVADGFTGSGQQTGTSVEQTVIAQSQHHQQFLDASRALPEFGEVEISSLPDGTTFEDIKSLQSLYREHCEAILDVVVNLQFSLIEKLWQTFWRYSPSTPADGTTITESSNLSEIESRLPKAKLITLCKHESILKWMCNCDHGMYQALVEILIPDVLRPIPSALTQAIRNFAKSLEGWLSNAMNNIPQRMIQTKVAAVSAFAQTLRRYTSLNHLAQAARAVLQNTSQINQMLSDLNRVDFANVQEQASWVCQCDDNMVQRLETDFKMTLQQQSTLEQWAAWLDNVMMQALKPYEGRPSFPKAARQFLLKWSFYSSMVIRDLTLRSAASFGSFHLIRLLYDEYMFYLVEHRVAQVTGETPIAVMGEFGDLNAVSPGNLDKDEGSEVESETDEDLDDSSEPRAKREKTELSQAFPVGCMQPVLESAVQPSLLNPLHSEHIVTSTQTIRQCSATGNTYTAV

[5] = target: T4, Pbx1 (mouse (endogenous in cochlea)) (UniProt P41778); test: as above
T4 sequence: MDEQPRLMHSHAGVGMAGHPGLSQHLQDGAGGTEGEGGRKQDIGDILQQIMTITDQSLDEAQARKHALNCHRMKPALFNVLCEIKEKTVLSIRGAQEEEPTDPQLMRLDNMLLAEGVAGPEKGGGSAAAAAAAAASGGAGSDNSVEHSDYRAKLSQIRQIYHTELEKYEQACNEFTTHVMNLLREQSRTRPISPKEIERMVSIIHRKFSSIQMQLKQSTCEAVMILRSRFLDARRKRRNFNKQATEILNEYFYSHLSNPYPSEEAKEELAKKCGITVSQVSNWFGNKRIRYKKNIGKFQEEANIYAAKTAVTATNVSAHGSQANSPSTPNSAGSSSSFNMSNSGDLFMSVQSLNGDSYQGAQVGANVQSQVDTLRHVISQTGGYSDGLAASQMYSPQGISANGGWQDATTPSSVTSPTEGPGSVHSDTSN

[6] = target: T5, Atoh1 (mouse (endogenous in cochlea)) (UniProt P48985); test: as above
T5 sequence: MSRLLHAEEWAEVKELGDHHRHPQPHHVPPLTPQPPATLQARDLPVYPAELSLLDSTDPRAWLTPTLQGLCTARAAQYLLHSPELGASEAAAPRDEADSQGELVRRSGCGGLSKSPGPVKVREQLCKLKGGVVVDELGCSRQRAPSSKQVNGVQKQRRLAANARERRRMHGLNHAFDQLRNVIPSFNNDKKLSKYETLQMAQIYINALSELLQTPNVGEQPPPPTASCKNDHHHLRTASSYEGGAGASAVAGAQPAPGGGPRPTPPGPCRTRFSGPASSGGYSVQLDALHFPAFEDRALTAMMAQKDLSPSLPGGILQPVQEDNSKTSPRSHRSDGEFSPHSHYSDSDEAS

[7] = target: T6, CTCF (mouse (endogenous in cochlea)) (UniProt Q61164); test: as above
T6 sequence: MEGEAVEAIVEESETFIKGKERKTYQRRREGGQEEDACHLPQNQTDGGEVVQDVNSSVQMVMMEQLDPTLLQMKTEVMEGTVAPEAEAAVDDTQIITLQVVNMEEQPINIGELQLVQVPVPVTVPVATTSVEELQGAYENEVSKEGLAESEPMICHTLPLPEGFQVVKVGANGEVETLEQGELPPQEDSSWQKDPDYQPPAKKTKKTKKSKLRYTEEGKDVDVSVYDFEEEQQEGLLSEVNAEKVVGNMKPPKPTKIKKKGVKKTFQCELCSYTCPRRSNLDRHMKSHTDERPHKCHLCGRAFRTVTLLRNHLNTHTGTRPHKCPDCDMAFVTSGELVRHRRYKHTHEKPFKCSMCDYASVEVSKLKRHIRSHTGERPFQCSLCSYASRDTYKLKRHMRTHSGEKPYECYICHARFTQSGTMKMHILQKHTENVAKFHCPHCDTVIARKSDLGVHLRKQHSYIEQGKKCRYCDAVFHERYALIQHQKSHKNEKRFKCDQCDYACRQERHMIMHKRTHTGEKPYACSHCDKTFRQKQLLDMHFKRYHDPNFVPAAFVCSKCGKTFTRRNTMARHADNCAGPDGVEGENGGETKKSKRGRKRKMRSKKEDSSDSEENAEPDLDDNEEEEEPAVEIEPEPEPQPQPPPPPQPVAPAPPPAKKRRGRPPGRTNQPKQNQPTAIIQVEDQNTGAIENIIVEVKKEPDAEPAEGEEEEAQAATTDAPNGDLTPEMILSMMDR

[8] = target: T7, Flag-Rfx3 (UniProt P48381); test: co-IP; nuclear extracts of 293 cells cotransfected with His-Six1 and an HA- or Flag-tagged partner; anti-HA or anti-Flag used to precipitate the tagged partner; IP buffer 20 mM Tris-HCl pH 8.0, 150 mM NaCl, 0.1% NP-40, 10% glycerol; western blot
T7 sequence: T3 sequence

[9] = target: T8, HA-Atoh1 (UniProt P48985); test: as above
T8 sequence: T5 sequence

[10] = target: T9, Flag-Pou4f3 (UniProt Q63955); test: as above
T9 sequence: T2 sequence

[11] = target: Flag-Gfi1 (UniProt P70338); test: as above
[12] = target: Flag-Gata3 (UniProt P23772); test: as above
[13] = target: T10, Flag-Pbx1 (UniProt P41778); test: as above
T10 sequence: T4 sequence

Measured: binding

B1: Six1 (protein, UniProt Q62231 1-284)
chain: MSMLPSFGFTQEQVACVCEVLQQGGNLERLGRFLWSLPACDHLHKNESVLKAKAVVAFHRGNFRELYKILESHQFSPHNHPKLQQLWLKAHYVEAEKLRGRPLGAVGKYRVRRKFPLPRTIWDGEETSYCFKEKSRGVLREWYAHNPYPSPREKRELAEATGLTTTQVSNWFKNRRQRDRAAEAKERENTENNNSSSNKQNQLSPLEGGKPLMSSSEEEFSPPQSPDQNSVLLLQSNMGHARSSNYSLPGLTASQPSHGLQAHQHQLQDSLLGPLTSSLVDLGS
binds: [1] | [2] | [3] | [4] | [5] | [6] | [7]

B2: His-Six1 (protein, UniProt Q62231 1-284)
chain: B1 chain
binds: [8] | [9] | [10] | [11] | [12] | [13]
